{"source": "patent US20220088403A1", "about": "“Methods And Compositions For Treating Coronavirus” (NOVOCURE GMBH, priority 2020, published 2022)", "key": {"HCoV-229E [1]": {"system": "HCoV-229E", "experiment": "Intracellular (cellular) viral load by RT-qPCR, combined effect of TTFields with remdesivir", "assay_type": "cell-based, HCoV-229E in human MRC-5 lung fibroblast cells", "settings": "higher concentration (0.023) with TTFields"}, "HCoV-229E [2]": {"system": "HCoV-229E", "experiment": "Immunofluorescence imaging of dsRNA, combined effect of TTFields with remdesivir", "assay_type": "cell-based, HCoV-229E in human MRC-5 lung fibroblast cells", "settings": "co-application of TTFields with remdesivir relative to the mono-therapies; 48 hpi"}}, "note": "At least one structure is not confirmed: it was looked up by name or label, or the drawing left a doubt.", "data": [{"smiles": "CCC(CC)COC(=O)[C@H](C)N[P@](=O)(OC[C@H]1O[C@@](C#N)(c2ccc3c(N)ncnn23)[C@H](O)[C@@H]1O)Oc1ccccc1", "note": "[remdesivir]", "values": [{"measurement": "calculated compared with measured combined effect", "setting": "HCoV-229E [1]", "result": "small additive effect"}, {"measurement": "levels of dsRNA within the cells", "setting": "HCoV-229E [2]", "result": "reduced levels of dsRNA"}]}]}
